Consider 19 molecules from PubChem BioAssay AID274 (DTP/NCI, 2004).

The list does not hold the whole screen: it is rich in T/C values a quarter to a half above the control, in often repeated tests (any T/C) and in doses without a T/C. Further doses and runs are listed elsewhere. T/C gives the treated animals as a percentage of the vehicle group. Some entries give survivors of the animals treated and no T/C: the source files T/C as zero there, which appears to mark a toxic dose or a test without result, not a measured value. Some survivor counts are full or nearly so, which does not show that the dose was tolerated: survival well below the control is almost never listed, so the zero probably covers shortened survival too. Survivors were counted at the toxicity check, usually on the fifth day, unless a day is given; later deaths do not show. Schedules are NCI's codes, taken here to give the interval after Q, in days (D) or hours (H), and the number of doses after X. Additions like (4×) stand for listed records that agree. Some entries were tested several times; the values are given in rising order. Where survival is the endpoint, this PubChem deposit counts one and a half times the control or more as active, and values a quarter to a half above the control carry no call in these data; other NCI protocols may use other cut-offs. Some T/C values are followed by the survivors on the day toxicity was checked, most often the fifth; where none is given, no animal had died by that day.

For this experiment, the system named is BDF1 mice, Lewis lung carcinoma iv, survival T/C. The experiment is described as follows: NCI In Vivo Anticancer Drug Screen. Data for tumor model Lewis Lung Carcinoma (intravenous) in B6D2F1 (BDF1) mice. To be noted: T/C endpoint: median survival time, higher T/C = longer survival. As to the method:
The antitumor activity of compounds was measured in mice bearing transplantable tumors. Survival or tumor size were measured and the results are expressed as the measurement made in the treated group (T) divided by the measurement made in the vehicle treated control group (C). The tumor model used in this assay is Lewis Lung Carcinoma (intravenous) in B6D2F1 (BDF1) mice

Setting [1] is: dose: 8.0 mg/kg/injection, schedule: Q01DX009 (ip), vehicle: saline.
The mark [2] stands for this setting: dose: 14.0 mg/kg/injection, schedule: Q01DX001 (ip), vehicle: saline.
The mark [3] stands for this setting: dose: 20.0 mg/kg/injection, schedule: Q01DX001 (ip), vehicle: saline.
The mark [4] stands for this setting: dose: 20.0 mg/kg/injection, schedule: Q01DX001 (iv), vehicle: saline.
The mark [5] stands for this setting: dose: 200.0 mg/kg/injection, schedule: Q01DX009 (ip), vehicle: saline with Tween-80.
Setting [6] is: dose: 50.0 mg/kg/injection, schedule: Q01DX009 (ip), vehicle: saline.
Where [7] appears, read: dose: 400.0 mg/kg/injection, schedule: Q01DX009 (ip), vehicle: water.
Where [8] appears, read: dose: 400.0 mg/kg/injection, schedule: Q01DX009 (ip), vehicle: saline with Tween-80.

In the case of `COc1cccc2c1C(=O)c1c(O)c3c(c(O)c1C2=O)C[C@@](O)(C(=O)CO)C[C@@H]3OC1CC(N)C(O)C(C)O1` (stereo partly drawn), the survivor count reads like this: (dose: 0.5 mg/kg/injection, schedule: Q04DX003 (ip), vehicle: saline) 4 of 8; (dose: 3.67 mg/kg/injection, schedule: Q01DX009 (ip), vehicle: saline) 8 of 8; (dose: 4.0 mg/kg/injection, schedule: Q01DX009 (ip), vehicle: saline) 10 of 10 (2×); under setting [1], 10 of 10; (dose: 8.0 mg/kg/injection, schedule: Q04DX003 (ip), vehicle: saline) 8 of 8 (2×); under setting [2], 8 of 8. Besides, the survivor count (dose: 16.7 mg/kg/injection, schedule: Q01DX001 (im), vehicle: water) is recorded as 6 of 8; the survivor count under setting [3] is 7 of 7 and 8 of 8; the survivor count under setting [4] is 5 of 8 and 8 of 8. Also, the T/C runs as follows: (dose: 1.8 mg/kg/injection, schedule: Q01DX009 (ip), vehicle: saline) 145 % of control; (dose: 2.0 mg/kg/injection, schedule: Q01DX009 (ip), vehicle: saline) 126 % of control; (dose: 2.74 mg/kg/injection, schedule: Q04DX003 (ip), vehicle: saline) 126 % of control; (dose: 4.8 mg/kg/injection, schedule: Q01DX001 (ip), vehicle: saline) 104, 108, 114, 140 % of control; (dose: 6.86 mg/kg/injection, schedule: Q01DX001 (ip), vehicle: saline) 109, 119, 123, 159 % of control; (dose: 6.86 mg/kg/injection, schedule: Q01DX001 (iv), vehicle: saline) 128 and 137 % of control. For the same molecule, the T/C runs as follows: (dose: 9.8 mg/kg/injection, schedule: Q01DX001 (ip), vehicle: saline) 123 (2×), 152, 421 % of control; (dose: 9.8 mg/kg/injection, schedule: Q01DX001 (iv), vehicle: saline) 128 % of control (2×); (dose: 10.0 mg/kg/injection, schedule: Q01DX001 (im), vehicle: water) 137 % of control; under setting [2], 114 [6 of 8 alive], 123, 126 % of control; (dose: 14.0 mg/kg/injection, schedule: Q01DX001 (iv), vehicle: saline) 127 % of control; under setting [3], 92 % of control [7 of 8 alive]. Also, under setting [4], the T/C is 133 % of control.
Consider `COC(=O)Nc1cccc(-c2nc3ccc(NC(=O)OC)cc3c(=O)n2-c2ccccc2)c1`, for which the survivor count (dose: 128.0 mg/kg/injection, schedule: Q01DX009 (ip), vehicle: Klucel (hydroxypropylcellulose) (HPC)) is reported as 1 of 10; the survivor count (dose: 256.0 mg/kg/injection, schedule: Q01DX009 (ip), vehicle: Klucel (hydroxypropylcellulose) (HPC)) is 9 of 10; the survivor count (dose: 256.0 mg/kg/injection, schedule: Q01DX009 (ip), vehicle: saline) is 4 of 10.
On to `Cc1cc2nc(Cc3nc4cc(C)c(C)cc4[nH]3)[nH]c2cc1C`, for which the survivor count under setting [5] is recorded as 2 of 10.
Regarding `CC1(C)CC23C4COC(=O)C2CCC1C3CC4=O` (stereo not drawn), the T/C runs as follows: (dose: 3.0 mg/kg/injection, schedule: Q01DX009 (ip), vehicle: DMSO) 133 % of control; (dose: 96.0 mg/kg/injection, schedule: Q01DX009 (ip), vehicle: DMSO) 147 % of control.
On to `COc1ccc2c(c1)/C(=C/CCN(C)C)c1ccccc1S2`, for which, under setting [6], the survivor count is 9 of 10.
As to `O=C(NO)c1cc(O)c(O)c(O)c1`, the survivor count is 9 of 9 under setting [7] and 2 of 10 (dose: 800.0 mg/kg/injection, schedule: Q01DX009 (ip), vehicle: water).
Regarding `Nc1ncnc2c1ncn2C1C=C(CO)C(O)C1O` (stereo not drawn), the survivor count under setting [1] was 0 of 10 and the survivor count (dose: 16.0 mg/kg/injection, schedule: Q01DX009 (ip), vehicle: saline) is on record as 0 of 10.
With `O=C(CN1CC1)NCCCCCCCCNC(=O)CN1CC1`, under “dose: 25.0 mg/kg/injection, schedule: Q01DX009 (ip), vehicle: Klucel (hydroxypropylcellulose) (HPC)”, the T/C is 141 % of control. Besides, the survivor count (dose: 50.0 mg/kg/injection, schedule: Q01DX009 (ip), vehicle: Klucel (hydroxypropylcellulose) (HPC)) is given as 10 of 10.
As to `O=S(=O)(N=N/C=C1\C=CC=CN1O)c1cccs1`, the survivor count by setting is: under setting [5], 2 of 6; under setting [8], 2 of 10.
`C=C(C)/C([O-])=N/[N+](C)(C)CC(O)CCCCCCCCCCCC` (stereo not drawn): the survivor count (dose: 25.0 mg/kg/injection, schedule: Q01DX001 (ip), vehicle: saline) is 10 of 10.
As to `NC1=NC(=O)N2CC12` (stereo not drawn), the survivor count (dose: 400.0 mg/kg/injection, schedule: Q01DX009 (ip), vehicle: saline) is 5 of 10.
As to `COc1cc2cc3cc4cc(OC)c(OC)cc4c(C)[n+]3cc2cc1OC` (tested in a mixture with another compound), the survivor count is 7 of 10 (dose: 100.0 mg/kg/injection, schedule: Q01DX009 (ip), vehicle: saline) and 0 of 10 (dose: 200.0 mg/kg/injection, schedule: Q01DX009 (ip), vehicle: saline).
As to `O=C(CCN1CC1)Nc1cccc(NC(=O)CCN2CC2)c1`, the survivor count is 4 of 10 (dose: 20.0 mg/kg/injection, schedule: Q01DX009 (ip), vehicle: saline with Tween-80) and 2 of 10 (dose: 40.0 mg/kg/injection, schedule: Q01DX009 (ip), vehicle: saline with Tween-80).
In the case of `Nc1ncnc2c1ncn2C1OC(COP(=O)(O)O)C(O)C1O` (stereo not drawn), under setting [7], the T/C was 126 % of control. The survivor count (dose: 1600.0 mg/kg/injection, schedule: Q01DX009 (ip), vehicle: saline) is given as 10 of 10.
Take `CCCC(=O)Oc1ccc(/C=N/NC(N)=S)nc1`: the survivor count (dose: 25.0 mg/kg/injection, schedule: Q01DX009 (ip), vehicle: saline with Tween-80) is listed as 9 of 10 and the survivor count under setting [8] is 10 of 10.
`N#CC(=C1SCS1)[N+](=O)[O-]`: under “dose: 12.0 mg/kg/injection, schedule: Q01DX009 (ip), vehicle: saline with Tween-80”, the survivor count is 9 of 10.
For the molecule `NNC(=S)N/N=C/c1ccccn1`, under “dose: 25.0 mg/kg/injection, schedule: Q01DX009 (ip), vehicle: saline”, the T/C was 145 % of control. Moreover, the survivor count under setting [6] is 5 of 10.
For the molecule `CC1CCC(NC(=O)N(CCCl)N=O)CC1` (stereo not drawn), the T/C is, setting by setting: (dose: 5.0 mg/kg/injection, schedule: Q01DX001 (ip), vehicle: saline + alcohol) 91, 100 (2×), 103 % of control; (dose: 10.0 mg/kg/injection, schedule: Q01DX001 (ip), vehicle: saline + alcohol) 95, 96 [7 of 8 alive], 100 (2×), 105, 106, 113, 142 % of control; (dose: 20.0 mg/kg/injection, schedule: Q01DX001 (ip), vehicle: saline + alcohol) 92, 95, 99, 110, 123, 128, 162, 235 % of control; under setting [3], 128 % of control; (dose: 24.0 mg/kg/injection, schedule: Q01DX001 (ip), vehicle: saline with Tween-80) 131 % of control; (dose: 30.0 mg/kg/injection, schedule: Q01DX001 (ip), vehicle: saline + alcohol) 94, 99, 101, 103, 107, 136, 169, 237 % of control. Moreover, the T/C (dose: 40.0 mg/kg/injection, schedule: Q01DX001 (ip), vehicle: saline + alcohol) was 87, 100, 103 [7 of 8 alive], 104 (2×), 106, 131, 181 % of control and the T/C (dose: 50.0 mg/kg/injection, schedule: Q01DX001 (ip), vehicle: saline + alcohol) is 100, 105, 131, 235 % of control. Besides, the survivor count is reported as 4 of 8 (dose: 5.0 mg/kg/injection, schedule: Q01DX001 (ip), vehicle: saline); 5 of 8 (dose: 10.0 mg/kg/injection, schedule: Q01DX001 (ip), vehicle: saline); 5 of 8 under setting [3]; 3 of 8 (dose: 40.0 mg/kg/injection, schedule: Q01DX001 (ip), vehicle: saline).
Take `COc1cc(OC)c(OC)cc1/C=C\c1ccnc2ccccc12`: the survivor count (dose: 400.0 mg/kg/injection, schedule: Q01DX009 (ip), vehicle: Klucel (hydroxypropylcellulose) (HPC)) was 2 of 10.
